Test results as given in patent US20210063414A1, “METHODS FOR PREVENTING AND/OR TREATING BONE LOSS CONDITIONS BY MODULATING IRISIN” (Dana-Farber Cancer Institute, Inc., priority 2018, published 2021).

Chains of the proteins cited; added tags and fusions are not shown. Residues count along the entry.
UniProt P09055, residues 21-798: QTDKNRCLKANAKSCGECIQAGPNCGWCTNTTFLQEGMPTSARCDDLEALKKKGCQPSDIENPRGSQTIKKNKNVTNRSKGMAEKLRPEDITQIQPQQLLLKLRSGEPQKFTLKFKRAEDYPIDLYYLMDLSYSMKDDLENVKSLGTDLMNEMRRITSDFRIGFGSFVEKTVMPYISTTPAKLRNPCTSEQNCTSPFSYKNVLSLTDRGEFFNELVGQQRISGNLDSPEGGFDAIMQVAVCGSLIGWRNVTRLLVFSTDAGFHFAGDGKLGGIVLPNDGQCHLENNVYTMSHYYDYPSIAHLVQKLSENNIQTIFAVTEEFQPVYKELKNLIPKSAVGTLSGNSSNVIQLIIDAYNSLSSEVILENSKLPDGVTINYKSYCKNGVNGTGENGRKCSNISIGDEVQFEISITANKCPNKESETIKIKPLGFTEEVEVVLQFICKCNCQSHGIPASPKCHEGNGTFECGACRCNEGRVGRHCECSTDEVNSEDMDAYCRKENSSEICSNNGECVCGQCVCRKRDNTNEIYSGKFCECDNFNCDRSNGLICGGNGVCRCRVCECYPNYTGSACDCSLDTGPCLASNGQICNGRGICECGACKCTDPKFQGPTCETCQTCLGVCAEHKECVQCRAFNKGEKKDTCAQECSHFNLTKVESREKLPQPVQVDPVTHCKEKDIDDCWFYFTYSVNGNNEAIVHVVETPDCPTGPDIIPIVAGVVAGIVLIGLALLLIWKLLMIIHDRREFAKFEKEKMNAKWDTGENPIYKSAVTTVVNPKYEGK

Biological target: Integrin beta-1 (Itgb1) of MLO-Y4 cells (mouse) (UniProt P09055)
Test: DTSSP cross-linking on MLO-Y4 cells, his-tag pull-down, mass spectrometry

B1: His-tag recombinant irisin (irisin (human/mouse) with a C-terminal 10 his tag, produced in HEK293 cells) (ligand, not shown: small tags and cut ends)
chain: DSPSAPVNVTVRHLKANSAVVSWDVLEDEVVIGFAISQQKKDVRMLRFIQEVNTTTRSCALWDLEEDTEYIVHVQAISIQGQSPASEPVLFKTPREAEKMASKNKDEVTMKE
B1 was tested, and the binding was “binds”.

Results are given in words; binding and its absence hold for the method and conditions named. In cells and extracts the contact can be indirect. These calls come from enrichment with a bait or labelling near it, and not all partners need be listed. Tags and fused reporters may be left off the sequences shown.
